Test results reported in publication PMC10288270.

Amino acid sequences for entries named in this document (tags omitted). Residues count along the entry.
UniProt P05067, 672-691: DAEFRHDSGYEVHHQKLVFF

Legend:
Amyloid beta 1-40 = Amyloid beta 1-40 (UniProt P05067); assay: fluorescence recovery (FAM/BHQ1 dequenching); settings: signal significantly lower than Abeta 1-42, 2 h, TBS: 1 mM Tris-HCl, 100 mM NaCl, 4 mM MgCl2, 5 mM KCl, pH 7.4, 37 C, aptamer refolded from 95 C, 2 uL of 10 uM aptamer, commercial protein, residues 672-711, folded or branched DNA
Amyloid beta 1-20 = Amyloid beta 1-20 (UniProt P05067); assay: fluorescence recovery (FAM/BHQ1 dequenching); settings: signal significantly lower than Abeta 1-42, 2 h, TBS: 1 mM Tris-HCl, 100 mM NaCl, 4 mM MgCl2, 5 mM KCl, pH 7.4, 37 C, aptamer refolded from 95 C, 2 uL of 10 uM aptamer, commercial protein, residues 672-691, folded or branched DNA

TGGGGGGCGGACGATAGGGGCCCCCCGGTAGGATGGACG [Abeta aptamer (AAP)]
binding result (Amyloid beta 1-40): binds more weakly
binding result (Amyloid beta 1-20): binds more weakly

A weaker result is weaker than the reference pair of the same experiment.
